In the supplement of paper PMC10849652:
This is one part of the list.

The chains behind the UniProt entries cited, without tags or fusion partners. Where a name states a change or a piece, a line headed by the entry shows the natural chain unless it says otherwise.
UniProt Q9UJY5: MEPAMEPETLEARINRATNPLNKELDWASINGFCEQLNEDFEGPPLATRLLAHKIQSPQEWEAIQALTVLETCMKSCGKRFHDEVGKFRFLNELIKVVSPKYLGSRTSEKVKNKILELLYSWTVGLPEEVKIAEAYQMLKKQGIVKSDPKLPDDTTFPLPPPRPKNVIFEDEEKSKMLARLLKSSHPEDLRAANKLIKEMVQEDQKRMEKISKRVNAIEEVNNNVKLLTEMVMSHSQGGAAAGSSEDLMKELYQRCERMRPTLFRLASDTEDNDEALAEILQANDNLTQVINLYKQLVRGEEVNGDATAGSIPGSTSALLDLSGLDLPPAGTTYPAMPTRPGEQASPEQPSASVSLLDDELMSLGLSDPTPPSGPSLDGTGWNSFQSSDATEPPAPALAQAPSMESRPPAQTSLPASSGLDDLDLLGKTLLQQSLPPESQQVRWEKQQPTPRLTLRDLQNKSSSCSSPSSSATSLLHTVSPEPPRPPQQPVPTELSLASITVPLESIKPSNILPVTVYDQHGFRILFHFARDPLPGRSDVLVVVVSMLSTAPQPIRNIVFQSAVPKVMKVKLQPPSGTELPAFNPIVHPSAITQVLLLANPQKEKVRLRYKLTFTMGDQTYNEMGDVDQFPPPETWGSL
UniProt Q8WXI9: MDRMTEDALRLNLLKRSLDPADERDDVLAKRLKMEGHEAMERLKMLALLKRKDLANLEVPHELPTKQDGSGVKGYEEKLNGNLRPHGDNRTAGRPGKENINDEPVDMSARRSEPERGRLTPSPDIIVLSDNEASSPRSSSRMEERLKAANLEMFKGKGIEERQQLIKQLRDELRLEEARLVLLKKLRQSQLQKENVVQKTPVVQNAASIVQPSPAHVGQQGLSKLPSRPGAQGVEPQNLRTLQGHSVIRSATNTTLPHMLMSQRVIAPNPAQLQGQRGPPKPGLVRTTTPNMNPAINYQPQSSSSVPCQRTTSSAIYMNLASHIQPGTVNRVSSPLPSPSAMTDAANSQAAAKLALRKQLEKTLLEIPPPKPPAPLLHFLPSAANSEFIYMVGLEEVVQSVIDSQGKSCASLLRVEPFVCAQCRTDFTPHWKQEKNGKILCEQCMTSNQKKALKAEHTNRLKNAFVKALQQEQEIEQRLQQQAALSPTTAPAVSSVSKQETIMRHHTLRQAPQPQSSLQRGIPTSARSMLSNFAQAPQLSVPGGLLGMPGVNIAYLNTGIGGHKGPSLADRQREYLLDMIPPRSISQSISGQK
UniProt O14976: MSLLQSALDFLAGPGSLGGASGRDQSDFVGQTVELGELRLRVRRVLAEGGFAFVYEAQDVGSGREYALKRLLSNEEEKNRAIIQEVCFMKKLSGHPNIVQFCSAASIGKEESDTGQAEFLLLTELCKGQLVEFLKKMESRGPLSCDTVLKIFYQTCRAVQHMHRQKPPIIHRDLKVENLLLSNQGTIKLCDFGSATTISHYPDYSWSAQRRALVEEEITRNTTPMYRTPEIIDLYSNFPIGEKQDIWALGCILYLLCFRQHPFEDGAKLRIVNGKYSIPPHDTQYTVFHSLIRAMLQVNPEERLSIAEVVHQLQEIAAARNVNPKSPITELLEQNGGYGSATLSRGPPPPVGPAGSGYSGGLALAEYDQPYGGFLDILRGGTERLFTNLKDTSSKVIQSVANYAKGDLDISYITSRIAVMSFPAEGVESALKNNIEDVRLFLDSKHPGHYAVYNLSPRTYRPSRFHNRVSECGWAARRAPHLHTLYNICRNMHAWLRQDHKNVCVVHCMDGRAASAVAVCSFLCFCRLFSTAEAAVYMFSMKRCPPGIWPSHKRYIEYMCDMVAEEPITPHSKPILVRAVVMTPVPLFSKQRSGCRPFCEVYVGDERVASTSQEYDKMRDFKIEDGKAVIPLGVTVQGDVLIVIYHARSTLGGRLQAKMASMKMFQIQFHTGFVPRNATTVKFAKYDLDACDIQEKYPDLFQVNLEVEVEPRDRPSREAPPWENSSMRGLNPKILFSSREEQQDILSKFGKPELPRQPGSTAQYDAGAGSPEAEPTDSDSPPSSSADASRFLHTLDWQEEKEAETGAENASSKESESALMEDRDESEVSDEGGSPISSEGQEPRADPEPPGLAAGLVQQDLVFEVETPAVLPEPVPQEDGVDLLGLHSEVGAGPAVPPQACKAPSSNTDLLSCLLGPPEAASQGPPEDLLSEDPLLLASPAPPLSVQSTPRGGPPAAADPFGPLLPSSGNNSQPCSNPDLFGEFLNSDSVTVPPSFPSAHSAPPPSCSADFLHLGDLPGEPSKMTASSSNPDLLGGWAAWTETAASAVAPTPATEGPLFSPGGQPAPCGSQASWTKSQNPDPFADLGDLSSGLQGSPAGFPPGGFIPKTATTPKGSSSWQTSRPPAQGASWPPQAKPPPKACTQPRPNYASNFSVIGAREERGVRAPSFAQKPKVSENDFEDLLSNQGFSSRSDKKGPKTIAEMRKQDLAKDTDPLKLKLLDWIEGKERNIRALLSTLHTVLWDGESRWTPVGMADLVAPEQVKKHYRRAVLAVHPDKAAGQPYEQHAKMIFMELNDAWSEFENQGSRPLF
UniProt P85037: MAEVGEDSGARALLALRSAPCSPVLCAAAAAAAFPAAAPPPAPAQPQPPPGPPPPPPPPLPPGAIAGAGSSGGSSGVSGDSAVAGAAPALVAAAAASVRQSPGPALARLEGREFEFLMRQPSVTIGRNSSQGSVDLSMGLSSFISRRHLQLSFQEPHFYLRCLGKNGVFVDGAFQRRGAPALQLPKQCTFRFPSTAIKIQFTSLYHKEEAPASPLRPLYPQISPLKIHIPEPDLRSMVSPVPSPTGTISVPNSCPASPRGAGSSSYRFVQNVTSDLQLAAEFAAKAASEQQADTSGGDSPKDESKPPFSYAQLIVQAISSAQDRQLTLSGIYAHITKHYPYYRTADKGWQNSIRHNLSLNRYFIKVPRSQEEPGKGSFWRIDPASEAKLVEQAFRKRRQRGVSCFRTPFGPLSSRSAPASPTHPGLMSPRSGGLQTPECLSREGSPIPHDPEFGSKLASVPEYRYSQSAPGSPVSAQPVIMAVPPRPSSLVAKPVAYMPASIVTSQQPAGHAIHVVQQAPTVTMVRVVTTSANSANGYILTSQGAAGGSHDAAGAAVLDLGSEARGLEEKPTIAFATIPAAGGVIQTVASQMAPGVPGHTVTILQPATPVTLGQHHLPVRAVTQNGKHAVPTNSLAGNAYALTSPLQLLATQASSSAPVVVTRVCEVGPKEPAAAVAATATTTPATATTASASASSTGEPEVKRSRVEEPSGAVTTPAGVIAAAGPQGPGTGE
UniProt P48507: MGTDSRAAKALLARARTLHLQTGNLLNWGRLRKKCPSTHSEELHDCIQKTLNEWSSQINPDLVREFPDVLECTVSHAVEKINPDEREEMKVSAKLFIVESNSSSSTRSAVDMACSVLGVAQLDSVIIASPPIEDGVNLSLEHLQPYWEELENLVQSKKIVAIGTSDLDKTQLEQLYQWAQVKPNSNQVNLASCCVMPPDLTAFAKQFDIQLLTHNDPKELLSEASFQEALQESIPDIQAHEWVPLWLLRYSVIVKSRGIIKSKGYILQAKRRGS
UniProt Q14376: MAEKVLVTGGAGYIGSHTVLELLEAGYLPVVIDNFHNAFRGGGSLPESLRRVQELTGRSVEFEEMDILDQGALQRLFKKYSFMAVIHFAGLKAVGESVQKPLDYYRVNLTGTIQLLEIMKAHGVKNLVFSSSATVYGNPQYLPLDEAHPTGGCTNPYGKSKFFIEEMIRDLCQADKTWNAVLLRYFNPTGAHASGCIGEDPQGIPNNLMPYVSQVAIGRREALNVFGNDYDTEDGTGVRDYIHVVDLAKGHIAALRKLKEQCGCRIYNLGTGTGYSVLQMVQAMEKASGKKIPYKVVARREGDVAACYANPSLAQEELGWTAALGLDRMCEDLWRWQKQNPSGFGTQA
UniProt Q9UET6: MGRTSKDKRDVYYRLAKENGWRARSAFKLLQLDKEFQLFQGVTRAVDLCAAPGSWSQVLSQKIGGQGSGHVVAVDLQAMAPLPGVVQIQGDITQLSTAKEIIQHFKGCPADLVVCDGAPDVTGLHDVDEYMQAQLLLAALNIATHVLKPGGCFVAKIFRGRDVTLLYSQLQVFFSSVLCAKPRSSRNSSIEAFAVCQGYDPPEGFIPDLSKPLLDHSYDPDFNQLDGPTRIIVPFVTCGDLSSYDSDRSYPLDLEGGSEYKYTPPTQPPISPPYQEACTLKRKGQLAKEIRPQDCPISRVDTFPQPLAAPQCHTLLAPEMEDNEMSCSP
UniProt Q8N9F7: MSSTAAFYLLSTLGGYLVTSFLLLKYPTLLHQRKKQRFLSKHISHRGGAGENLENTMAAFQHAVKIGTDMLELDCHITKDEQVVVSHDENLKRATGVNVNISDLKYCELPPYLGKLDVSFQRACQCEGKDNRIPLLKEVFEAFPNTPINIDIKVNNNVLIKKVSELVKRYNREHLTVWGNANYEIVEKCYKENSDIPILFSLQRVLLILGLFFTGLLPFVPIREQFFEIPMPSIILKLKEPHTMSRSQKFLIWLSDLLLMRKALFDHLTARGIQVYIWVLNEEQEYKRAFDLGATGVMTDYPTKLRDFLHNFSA
UniProt Q9C0B1, whole entry, looked up: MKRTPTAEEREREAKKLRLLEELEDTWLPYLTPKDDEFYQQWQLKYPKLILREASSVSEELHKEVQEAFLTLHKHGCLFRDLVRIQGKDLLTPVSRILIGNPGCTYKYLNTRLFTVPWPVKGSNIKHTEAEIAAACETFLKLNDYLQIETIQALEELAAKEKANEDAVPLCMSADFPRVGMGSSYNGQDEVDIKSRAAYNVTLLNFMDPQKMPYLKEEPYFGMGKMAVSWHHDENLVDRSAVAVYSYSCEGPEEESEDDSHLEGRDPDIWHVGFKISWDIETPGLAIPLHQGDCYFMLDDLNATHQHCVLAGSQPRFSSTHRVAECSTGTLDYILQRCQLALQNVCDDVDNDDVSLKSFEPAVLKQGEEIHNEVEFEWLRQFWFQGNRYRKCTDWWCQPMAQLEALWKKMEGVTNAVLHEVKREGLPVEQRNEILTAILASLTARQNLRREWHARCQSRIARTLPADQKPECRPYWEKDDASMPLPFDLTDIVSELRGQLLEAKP
UniProt Q86SF2: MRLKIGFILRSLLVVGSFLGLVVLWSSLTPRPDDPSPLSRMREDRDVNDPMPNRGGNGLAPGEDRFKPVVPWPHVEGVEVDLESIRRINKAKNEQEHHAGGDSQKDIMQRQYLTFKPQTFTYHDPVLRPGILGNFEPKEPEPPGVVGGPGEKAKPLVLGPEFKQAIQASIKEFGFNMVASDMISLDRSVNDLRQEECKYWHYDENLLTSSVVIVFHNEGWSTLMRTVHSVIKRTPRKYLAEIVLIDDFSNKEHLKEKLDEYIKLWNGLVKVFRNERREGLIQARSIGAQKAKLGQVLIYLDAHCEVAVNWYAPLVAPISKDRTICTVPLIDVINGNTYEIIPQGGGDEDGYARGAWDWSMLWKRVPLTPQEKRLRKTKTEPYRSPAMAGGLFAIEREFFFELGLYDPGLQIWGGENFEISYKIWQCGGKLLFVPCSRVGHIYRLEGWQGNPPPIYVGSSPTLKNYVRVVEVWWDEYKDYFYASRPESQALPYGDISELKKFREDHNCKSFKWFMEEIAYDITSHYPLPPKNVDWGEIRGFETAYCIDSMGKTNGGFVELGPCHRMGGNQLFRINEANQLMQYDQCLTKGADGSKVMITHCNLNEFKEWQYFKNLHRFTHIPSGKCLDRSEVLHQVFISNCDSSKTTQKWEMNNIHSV
UniProt P60520, whole entry, looked up: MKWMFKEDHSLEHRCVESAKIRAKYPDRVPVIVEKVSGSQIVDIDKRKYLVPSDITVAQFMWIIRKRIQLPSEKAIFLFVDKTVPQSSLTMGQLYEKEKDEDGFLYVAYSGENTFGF
UniProt P02792: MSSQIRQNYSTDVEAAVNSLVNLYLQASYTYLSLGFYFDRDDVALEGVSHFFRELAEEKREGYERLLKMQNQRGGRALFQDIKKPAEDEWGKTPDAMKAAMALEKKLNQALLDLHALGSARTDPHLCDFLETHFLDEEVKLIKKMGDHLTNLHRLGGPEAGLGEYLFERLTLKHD
UniProt O95749: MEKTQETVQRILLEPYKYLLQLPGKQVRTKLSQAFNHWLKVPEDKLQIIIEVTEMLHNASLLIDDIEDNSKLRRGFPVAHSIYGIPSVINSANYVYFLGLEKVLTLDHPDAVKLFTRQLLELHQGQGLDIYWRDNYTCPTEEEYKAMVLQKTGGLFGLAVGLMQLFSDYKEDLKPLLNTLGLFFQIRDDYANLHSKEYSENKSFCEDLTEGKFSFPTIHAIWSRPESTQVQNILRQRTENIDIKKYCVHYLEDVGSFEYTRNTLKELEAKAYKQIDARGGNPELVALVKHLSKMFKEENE

Assays:
Test in all cases: log2 fold change, soluble protein after heating vs DMSO (PISA); higher = thermal stabilisation; K562 cells, 10 uM, 30 min; active = over 0.2 and 3.5 SD of the protein, either way, in both replicates (recomputed)
[1] = compound: CC1=C(C=C(C=C1)NC(=O)C2=CC(=CC=C2)C(C)(C)C#N)NC3=CC4=C(C=C3)N=CN(C4=O)C
In short: (§1)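 Thermal stability values are relative to control samples and come from duplicates. They are expressed as log2 fold changes. For measurement, K562 cells (2×10^6 cells/mL) received 10 μM compound for 30 min, and aliquots were heated for 3 min over 48°C-58°C, pooled, and extracted at 4°C in PBS with 0.5% NP-40. Soluble protein, the supernatant after 21,000xg for 90 min, was quantified by TMTpro 16plex LC-MS/MS with equalised channel sums.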

[2] = compound: CC1=C(C=C(C=C1)NC(=O)C2=CC(=CC=C2)N(C)C)NC(=O)C3=CC=C(C=C3)O
In short: as §1

[3] = compound: CC1=CC=C(C=C1)SC2=C3C=C(SC3=CN=C2)C(=O)N
In short: as §1

[4] = compound: CC1=NC(=CC=C1)C2=C(N=C(N2)C(C)(C)C)C3=CC4=NC=CN=C4C=C3
In short: as §1

Nexturastat A = compound: CCCCN(Cc1ccc(C(=O)NO)cc1)C(=O)Nc1ccccc1 [Nexturastat A]
In short: as §1

vemurafenib = compound: CCCS(=O)(=O)Nc1ccc(F)c(C(=O)c2c[nH]c3ncc(-c4ccc(Cl)cc4)cc23)c1F [vemurafenib]
In short: as §1

[5] = compound: CCCS(=O)(=O)Nc1ccc(F)c(C(=O)c2c[nH]c3ncc(Cl)cc23)c1F
In short: as §1

[6] = compound: CCCc1cc(C)[nH]c(=O)c1CNC(=O)c1cc(-c2ccnc(N3CCN(C)CC3)c2)cc2c1cnn2C(C)C
In short: as §1

givinostat = compound: CCN(CC)Cc1ccc2cc(COC(=O)Nc3ccc(C(=O)NO)cc3)ccc2c1 [givinostat]
In short: as §1

barasertib = compound: CCN(CCCOc1ccc2c(Nc3cc(CC(=O)Nc4cccc(F)c4)[nH]n3)ncnc2c1)CCOP(=O)(O)O [barasertib]
In short: as §1

Measured: log2 fold change

GFM1 (UniProt Q96RP9)
inactive: [1] 0.043 | [2] -0.084 | [3] 0.037 | [4] 0.045 | Nexturastat A -0.069 | vemurafenib 0.05 | [5] 0.062 | [6] 0.027 | givinostat 0.044 | barasertib 0.062

GGA1 isoform 6 (UniProt Q9UJY5)
inactive: [1] 0.006 | [2] -0.035 | [3] 0.009 | [4] 0.018 | Nexturastat A -0.09 | vemurafenib 0.052 | [5] 0.003 | [6] 0.029 | givinostat 0.021 | barasertib 0.023

GATAD2B (UniProt Q8WXI9)
inactive: [1] 0.072 | [2] -0.087 | [3] 0.077 | [4] 0.006 | Nexturastat A -0.017 | vemurafenib 0.013 | [5] 0.011 | [6] 0.016 | givinostat 0.036

G6PD isoform 2 (UniProt P11413)
inactive: [1] 0.016 | [2] -0.01 | [3] 0.003 | [4] 0.039 | Nexturastat A -0.063 | vemurafenib 0.036 | [5] 0.027 | [6] 0 | givinostat -0.032 | barasertib 0.009

GARS1 (UniProt H7C443)
inactive: [1] -0.406 | [2] 0.046 | [3] -0.173 | [4] -0.303 | Nexturastat A 0.056 | vemurafenib -0.162 | [5] -0.24 | [6] -0.252 | givinostat -0.012

GAK (UniProt O14976)
inactive: [1] 0.214 | [2] 0.038 | [3] -0.337 | [4] -0.14 | Nexturastat A 0.452 | vemurafenib -0.06 | [5] 0.114 | [6] 0.17 | givinostat 0.64

FOXK1 (UniProt P85037)
inactive: [1] 0.323 | [2] -0.01 | [3] -0.362 | [4] -0.063 | Nexturastat A -0.091 | vemurafenib 0.097 | [5] 0.182 | [6] -0.129 | givinostat -0.025 | barasertib -0.221

FOXO3 (UniProt O43524)
inactive: [1] 0.247 | [2] -0.039 | [3] 0.037 | [4] 0.119 | Nexturastat A 0.024 | vemurafenib -0.023 | [5] 0.017 | [6] -0.159 | givinostat 0.012

GGNBP2 (UniProt Q9H3C7)
inactive: [1] 0.033 | [2] 0.046 | [3] -0.02 | [4] -0.032 | Nexturastat A 0.255 | vemurafenib -0.102 | [5] -0.078 | [6] -0.158 | givinostat 0.024 | barasertib -0.061

G3BP1 (UniProt Q13283)
inactive: [1] 0.047 | [2] 0.053 | [3] -0.075 | [4] -0.004 | Nexturastat A 0.218 | vemurafenib 0.006 | [5] 0.021 | [6] 0.03 | givinostat -0.018 | barasertib -0.118

GGH (UniProt Q92820)
inactive: [1] 0.004 | [2] 0.017 | [3] -0.001 | [4] 0 | Nexturastat A -0.013 | vemurafenib 0.026 | [5] -0.026 | [6] -0.014 | givinostat -0.012 | barasertib -0.008

FRG1 (UniProt Q14331)
inactive: [1] -0.018 | [2] -0.011 | [3] -0.091 | [4] -0.214 | Nexturastat A 0.084 | vemurafenib -0.026 | [5] -0.017 | [6] 0.021 | givinostat -0.03 | barasertib -0.037

GCLM (UniProt P48507)
inactive: [1] 0.044 | [2] -0.04 | [3] 0.019 | [4] 0.057 | Nexturastat A -0.006 | vemurafenib 0.1 | [5] 0.099 | [6] 0.002 | givinostat 0.074 | barasertib 0.066

GALE (UniProt Q14376)
inactive: [1] 0.034 | [2] -0.009 | [3] -0.005 | [4] 0.032 | Nexturastat A -0.06 | vemurafenib 0.035 | [5] 0.003 | [6] -0.069 | givinostat -0.133 | barasertib 0.049

FTSJ1 (UniProt Q9UET6)
inactive: [1] -0.007 | [2] -0.042 | [3] -0.025 | [4] 0.011 | Nexturastat A -0.012 | vemurafenib 0.02 | [5] 0.052 | [6] -0.051 | givinostat -0.011 | barasertib 0.012

GATB (UniProt O75879)
inactive: [1] 0.02 | [2] -0.125 | [3] 0.196 | [4] 0.405 | Nexturastat A 0.142 | vemurafenib 0.07 | [5] 0.17 | [6] 0.031 | givinostat 0.169

GALK1 isoform 2 (UniProt P51570)
inactive: [1] 0.244 | [2] 0.004 | [3] 0.144 | [4] 0.02 | Nexturastat A -0.082 | vemurafenib 0.144 | [5] 0.183 | [6] 0.033 | givinostat 0.018 | barasertib -0.007

GADD45GIP1 (UniProt Q8TAE8)
inactive: [1] -0.008 | [2] 0.038 | [3] -0.036 | [4] -0.047 | Nexturastat A 0.028 | vemurafenib -0.083 | [5] -0.062 | [6] -0.05 | givinostat 0.053 | barasertib -0.024

GDPD1 (UniProt Q8N9F7)
inactive: [1] 0.003 | [2] -0.135 | [3] 0.022 | [4] -0.07 | Nexturastat A -0.026 | vemurafenib 0.022 | [5] -0.081 | [6] 0.099 | givinostat -0.046 | barasertib 0.001

GAB2 (UniProt Q9UQC2)
inactive: [1] -0.053 | [2] -0.21 | [3] 0.022 | [4] 0.077 | Nexturastat A 0.075 | vemurafenib -0.071 | [5] -0.349 | [6] 0.099 | givinostat 0.101

GCDH (UniProt Q92947)
inactive: [1] -0.017 | [2] -0.004 | [3] 0.014 | [4] 0.009 | Nexturastat A -0.007 | vemurafenib 0 | [5] 0.002 | [6] 0.009 | givinostat 0.004 | barasertib 0.005

Copied from the results shown (2 entries):
GADD45GIP1 (UniProt Q8TAE8)
inactive: [1] -0.008 | [2] 0.038 | [3] -0.036 | [4] -0.047 | Nexturastat A 0.028 | vemurafenib -0.083 | [5] -0.062 | [6] -0.05 | givinostat 0.053 | barasertib -0.024

GDPD1 (UniProt Q8N9F7)
inactive: [1] 0.003 | [2] -0.135 | [3] 0.022 | [4] -0.07 | Nexturastat A -0.026 | vemurafenib 0.022 | [5] -0.081 | [6] 0.099 | givinostat -0.046 | barasertib 0.001

Further results.

FTO (UniProt Q9C0B1)
inactive: [1] 0.018 | [2] -0.018 | [3] 0.008 | [4] 0.039 | Nexturastat A -0.04 | vemurafenib -0.013 | [5] -0.01 | [6] -0.027 | givinostat -0.122 | barasertib -0.001

GALNT7 (UniProt Q86SF2)
inactive: [1] 0.036 | [2] -0.009 | [3] 0.072 | [4] -0.014 | Nexturastat A -0.023 | vemurafenib 0.019 | [5] 0.025 | [6] -0.025 | givinostat -0.019 | barasertib 0.001

GABARAPL2 (UniProt P60520)
inactive: [1] -0.01 | [2] 0.023 | [3] 0.067 | [4] 0.188 | Nexturastat A -0.122 | vemurafenib 0.026 | [5] 0.051 | [6] -0.03 | givinostat 0.03 | barasertib 0.007

FXR2 (UniProt P51116)
inactive: [1] 0.013 | [2] 0.044 | [3] -0.104 | [4] 0.059 | Nexturastat A 0.373 | vemurafenib -0.037 | [5] 0.05 | [6] 0.139 | givinostat 0.099 | barasertib -0.071

GCAT isoform 2 (UniProt O75600)
inactive: [1] 0.033 | [2] -0.018 | [3] 0 | [4] 0.011 | Nexturastat A -0.098 | vemurafenib 0.02 | [5] 0.017 | [6] 0.007 | givinostat -0.044 | barasertib 0.006

FYCO1 isoform 4 (UniProt Q9BQS8)
inactive: [1] 0.018 | [2] 0.045 | [3] -0.014 | [4] -0.037 | Nexturastat A 0.028 | vemurafenib -0.013 | [5] 0.049 | [6] 0.042 | givinostat 0.035 | barasertib 0.1

FTL (UniProt P02792)
inactive: [1] -0.058 | [2] 0.051 | [3] -0.024 | [4] 0.021 | Nexturastat A 0.115 | vemurafenib -0.089 | [5] -0.024 | [6] -0.083 | givinostat -0.268 | barasertib -0.01

FUCA1 (UniProt P04066)
inactive: [1] 0.03 | [2] 0.009 | [3] 0.021 | [4] 0.092 | Nexturastat A -0.054 | vemurafenib -0.007 | [5] 0.066 | [6] -0.016 | givinostat 0 | barasertib 0.012

GGPS1 (UniProt O95749)
inactive: [1] 0.005 | [2] 0.025 | [3] -0.015 | [4] 0.005 | Nexturastat A -0.013 | vemurafenib -0.005 | [5] -0.02 | [6] -0.004 | givinostat -0.115 | barasertib 0
